Values from PubChem BioAssay AID1259254 (NCATS, 2017).
In all, the deposit lists about 59,000 reagents; below is a random part of them. About 1,550 of them (2.6%) count as active. 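G2 share is only a proxy for re-replication; each gene was hit by three separate siRNAs, and active genes were retested.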 The numbers tell different reagents against one gene apart. Further read-outs or replicates are left out here. The record does not give: the amount of reagent.

Purpose: 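Genome-wide screen for genes that prevent DNA re-replication in cancer cells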 (primary screen)
Cell system: human HCT116 colorectal cancer cells
Knock-down reagent: single siRNA against human genes
Timing: 3 days
Measured: 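Imaged Hoechst DNA stain sorts each cell into a cycle phase by DNA amount; per plate, G2 fraction set to 0% for non-targeting and 100% for GMNN siRNA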
Direction: G2 robust z-score and G2 cells, % of GMNN control: higher = more G2 cells, more excess DNA replication
Rule for the call: 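An siRNA counts as active if its G2 robust z-score lies at least 5 MADs above the screen median; here such calls match roughly 38% of GMNN control or more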

What is on record for HAVCR1 #1?
G2 robust z-score: 1.93; G2 cells, % of GMNN control: 16.6; activity call: inactive

What did the screen give for HAVCR1 #2?
G2 robust z-score: 0.559; G2 cells, % of GMNN control: 6.9; activity call: inactive

Which result is listed for HAVCR1 #3?
G2 robust z-score: -0.992; G2 cells, % of GMNN control: -4.01; activity call: inactive

With EIF3D #1, how do the results read?
G2 robust z-score: 0.312; G2 cells, % of GMNN control: 5.16; activity call: inactive

Which result is listed for EIF3D #2?
G2 robust z-score: 3.35; G2 cells, % of GMNN control: 26.6; activity call: inactive

Which result is listed for EIF3D #3?
G2 robust z-score: 2.05; G2 cells, % of GMNN control: 17.4; activity call: inactive

What is on record for SNX24 #1?
G2 robust z-score: -0.8; G2 cells, % of GMNN control: -2.66; activity call: inactive

For SNX24 #2, what was measured?
G2 robust z-score: 0.723; G2 cells, % of GMNN control: 8.05; activity call: inactive

Which result is listed for SNX24 #3?
G2 robust z-score: -1.05; G2 cells, % of GMNN control: -4.42; activity call: inactive

Copied from the list.
Under “G2 robust z-score”, SNX24 #2 is entered as 0.723
Under “activity call”, HAVCR1 #2 is entered as inactive

The results go on:
For ITSN2 #1, what does the deposit list?
G2 robust z-score: 0.298; G2 cells, % of GMNN control: 5.06; activity call: inactive

With ITSN2 #2, how do the results read?
G2 robust z-score: -0.466; G2 cells, % of GMNN control: -0.311; activity call: inactive

How did the screen score ITSN2 #3?
G2 robust z-score: 2.27; G2 cells, % of GMNN control: 19; activity call: inactive

With RIN2 #1, how do the results read?
G2 robust z-score: -0.247; G2 cells, % of GMNN control: 1.23; activity call: inactive

How did the screen score RIN2 #2?
G2 robust z-score: -0.107; G2 cells, % of GMNN control: 2.22; activity call: inactive

With RIN2 #3, what was measured?
G2 robust z-score: 6.93; G2 cells, % of GMNN control: 51.7; activity call: active

For ACKR2 #1, what was measured?
G2 robust z-score: -0.775; G2 cells, % of GMNN control: -2.48; activity call: inactive

Which result is listed for ACKR2 #2?
G2 robust z-score: -0.202; G2 cells, % of GMNN control: 1.55; activity call: inactive

With ACKR2 #3, how do the results read?
G2 robust z-score: -0.571; G2 cells, % of GMNN control: -1.05; activity call: inactive
